The record followed here is publication PMC12193833, “Toxicity Assessment and Antifungal Potential of Copper(II) and Silver(I) Complexes with 1,10-Phenanthroline-5,6-dione Against Drug-Resistant Clinical Isolates of Cryptococcus gattii and Cryptococcus neoformans” (Journal of Fungi, 2025).

Data set [1] deals with Galleria mellonella larvae. As to the kind of experiment: In vivo acute toxicity, single treatment. Conditions: for Selectivity index (G. mellonella CC50/Cryptococcus MIC): G. mellonella larvae. Here is the method: In this set of experiments, G. mellonella larvae weighing approximately 0.2–0.3 g and displaying clear, uniform coloration were used. The larvae were inoculated (10 µL/larva) using an insulin syringe (BD Ultra-Fine, Franklin Lakes, NJ, USA) at the last left proleg. […] We also assessed their coloration through visual analysis as an indicator of stress levels. Throughout the experiments, the larvae were maintained at 37 °C [19, 42]. Two distinct treatment protocols were designed to evaluate the effects of the test compounds on larval survivability, as detailed below.
For the acute toxicity analysis, the test compounds were administered to the larvae in a single inoculation at concentrations ranging from 1000 to 125 μM. Each group consisted of 10 larvae, while the control group received only sterile PBS with 4% DMSO. […] The SI was calculated using the following equation: SI = G. mellonella CC50/Cryptococcus MIC.

A further data set has as its system Sheep erythrocytes. Conditions: for Selectivity index (erythrocyte CC50/Cryptococcus MIC): Erythrocytes. Here is the method:
To evaluate the hemolytic activity of the test compounds, the microdilution method was performed in PBS using 96-well cell culture plates, as described by Evans et al.. PBS containing the test compounds (phendione, Cu-phendione, and Ag-phendione) at varying concentrations (1.9–62.5 µM) was added to the wells. Sheep erythrocytes (Cultilab, Rio de Janeiro, RJ, Brazil) were diluted in PBS to a final concentration of 2% (approximately 2 × 10^8 erythrocytes) and added to each well. The final volume of each well was 200 μL. A negative control (PBS and blood) and a positive control (PBS, blood, and 1% Triton X-100) were also included. The plates were incubated at 37 °C for 24 h, then centrifuged at 500× g for 10 min at 4 °C. Following centrifugation, 100 μL of the supernatant from each well was transferred to a new 96-well microplate, and absorbance was measured using a microplate reader ([…] SkyHigh; Thermo Scientific, Waltham, MA, USA) at 415 nm. […] The average absorbance of the positive control was set as 100% hemolysis, and the percentage hemolysis of the other groups was calculated accordingly. The selectivity index (SI) was determined using the following equation: SI = erythrocyte CC50/Cryptococcus MIC.

The mark [2] stands for this setting: C. gattii MIC, listed as Ag-Phendione.
Setting [3] is: C. neoformans MIC, listed as Ag-Phendione.

Like-named read-outs stand apart in the source and are kept apart here.

For `O=C1C(=O)c2cccnc2-c2ncccc21.O=C1C(=O)c2cccnc2-c2ncccc21.[Ag+].[O-][Cl+3]([O-])([O-])[O-]` [Ag-phendione, [Ag(phendione)2]ClO4], the “Selectivity index (G. mellonella CC50/Cryptococcus MIC)” value in data set [1] (C. gattii MIC) was “exceeding 641”; in data set [1] (setting [2]), over 641; in data set [1] (C. neoformans MIC), “exceeding 641”; in data set [1] (setting [3]) it was over 641. The “Selectivity index (erythrocytes)” value in the data set on Sheep erythrocytes (Cryptococcus overall (abstract)) is over 40. Further, the “Selectivity index (erythrocyte CC50/Cryptococcus MIC)” value with Sheep erythrocytes (C. gattii MIC), in the data set with Sheep erythrocytes (setting [2]), in the data set with Sheep erythrocytes (C. neoformans MIC) and in the data set on Sheep erythrocytes (setting [3]) was over 40 throughout.
For the molecule `O.O.O.O.O=C1C(=O)c2cccnc2-c2ncccc21.O=C1C(=O)c2cccnc2-c2ncccc21.O=C1C(=O)c2cccnc2-c2ncccc21.[Cu+2].[O-][Cl+3]([O-])([O-])[O-].[O-][Cl+3]([O-])([O-])[O-]` [Cu-phendione, [Cu(phendione)3](ClO4)2·4H2O], in data set [1] (Cryptococcus clinical isolates overall, single administration), the “Selectivity index (G. mellonella larvae)” value was “at least 160”. Further, the “Selectivity index (G. mellonella CC50/Cryptococcus MIC)” value in data set [1] (C. gattii MIC) is over 160; in data set [1] (C. neoformans MIC) it was over 320. The “Selectivity index (erythrocyte CC50/Cryptococcus MIC)” value in the data set with Sheep erythrocytes (C. gattii MIC) is listed as over 10; in the data set on Sheep erythrocytes (C. neoformans MIC), over 20.
